From PubChem BioAssay AID1487 (National Center for Advancing Translational Sciences (NCATS), 2009)
This is one part of the list. Shown are side measurements of this screen, not its main read-out; they come without a call. The list favours compounds with an active or inconclusive main result. Potencies come from curve fits of mixed quality, noted in brackets.

Test: qHTS Assay for Modulators of Lamin A Splicing
Settings: HeLa LMNA splicing GFP/RFP minigene ratio, 48 h
How it was run: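 Read-out is the ratio of GFP to DsRed2 object intensity, acquired by 488 nm laser-scanning cytometry on HeLa lamin A-EGFP minigene reporter cells. Compound incubation 48 hrs at 37 °C in Opti-MEM with 2% FBS; DMSO 0.5% final.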

[1] = measured here: RFP viability control channel
[2] = measured here: GFP splicing reporter channel

Row | SMILES | AC50 [1] | AC50 [2]
1 | O=C(Nc1ccc(S(=O)(=O)N2CCc3ccccc32)cc1)c1ccc2c(c1)OCO2 | 14.1 µM [rising, partial curve] | 
2 | CC1CCc2sc(C(=O)Nc3ccc(C(N)=O)cc3)cc2C1 (stereo not given) | 6.31 µM [falling, partial curve] | 
3 | CN(/N=C/c1cc([N+](=O)[O-])ccc1O)c1ccccc1 | 7.08 µM [falling, partial curve, poor fit] | 3.55 µM [falling, full curve]
4 | N#Cc1c(-c2ccccc2)c(-c2ccccc2)nn(CC(=O)NNC(=O)Nc2ccc(Cl)c(Cl)c2)c1=O | 35.5 µM [falling, single point] | 35.5 µM [falling, single point]
5 | O=C(Cc1ccccc1)N(Cc1cccnc1)c1nc2c(F)cc(F)cc2s1 |  | 20 µM [falling, partial curve, poor fit]
6 | O=C(Nc1cc(Cl)cc(Cl)c1)c1ccc(F)c(S(=O)(=O)N2CCc3ccccc32)c1 | 35.5 µM [rising, single point] | 
7 | COc1ccc(CCNC(=O)c2ccc3c(c2)N(Cc2c(F)cccc2Cl)C(=O)CS3)cc1OC |  | 0.178 µM [falling, full curve, poor fit]
8 | O=C1CC[C@@H](CN(Cc2ccccc2)Cc2cn[nH]c2-c2cc3ccccc3o2)N1 | 35.5 µM [falling, single point] | 35.5 µM [falling, single point]
9 | CC(C)c1ccc(OCC(=O)NC(Cc2c[nH]c3ccccc23)C(=O)O)cc1 (stereo not given) |  | 5.62 µM [rising, single point]
10 | CC1=NN(C(=O)c2cc(C)nn2C)C(O)(C(F)(F)F)C1 (stereo not given) | 12.6 µM [rising, partial curve, poor fit] | 
11 | Cn1c(=O)c(-c2ccc(Cl)cc2)nc2cnc(Oc3cccc(Cl)c3)nc21 | 11.2 µM [falling, partial curve] | 11.2 µM [falling, partial curve]
12 | N#Cc1ccc(-c2cccnc2)nc1SCc1ccc(Cl)cc1Cl | 0.891 µM [falling, full curve] | 
13 | C#C[C@@]1(O)CC[C@@H]2[C@@H]3CCC4=C(CCC(=O)C4)[C@H]3CC[C@]21C | 2.24 µM [rising, full curve] | 1.26 µM [rising, full curve]
14 | O=C(c1cc([N+](=O)[O-])ccc1N1CCCCC1)N1CCc2ccccc21 | 7.08 µM [rising, full curve, poor fit] | 
15 | Cc1cccc(NC(=O)C2C3CCC4C(CCC32)C4(Cl)Cl)c1 (stereo not given) | 0.141 µM [rising, full curve, poor fit] | 

Part of the list above, field by field:
Cn1c(=O)c(-c2ccc(Cl)cc2)nc2cnc(Oc3cccc(Cl)c3)nc21
  AC50 [1]: 11.2 µM [falling, partial curve]
  AC50 [2]: 11.2 µM [falling, partial curve]
N#Cc1ccc(-c2cccnc2)nc1SCc1ccc(Cl)cc1Cl
  AC50 [1]: 0.891 µM [falling, full curve]
